# Residue numbers refer to the chain shown, from its start. Names and notes keep the numbering of the source. Like-named read-outs stand apart in the source and are kept apart here. These are yes or no findings as the source states them, for the method shown. Some binding calls cover weakened binding; strength is not graded here. Sequences can lack the tags named with a protein.
# B1: WT Roq1-Flag (receptor, UniProt A0A290U7C4 1-1306)
# chain: MLTSSSHHGRSYDVFLSFRGEDTRKTFVGHLFNALIEKGIHTFMDDKELKRGKSISSELMKAIGESRFAVVVFSKNYASSTWCLEELVKILEIHEKFELIVVPVFYDVDPSTVRKQNGEYAVCFTKFEANLVDDRDKVLRWREALTKVANISGHDLRNTYNGDESKCIQQILKDIFDKFCFSISITNRDLVGIESQIKKLSSLLRMDLKGVRLVGIWGMGGVGKTTAARALFNRYYQNFESACFLEDVKEYLQHHTLLYLQKTLLSKLLKVEFVDCTDTEEMCVILKRRLCSKKVLVVLDDVNHNDQLDKLVGAEDWFGSGSRIVITTRDMKLLKNHDVHETYEIKVLEKDEAIELFNLHAFKRSSPEKEFKELLNLVVDYTGGLPLALKVLGSLLYKEDLDVWISTIDRLKDNPEGEIMATLKISFDGLRDYEKSIFLDIACFFRGYNQRDMTALFHASGFHPVLGVKTLVEKSLIFILEDKIQMHDLMQEMGRQIAVQESPMRRIYRPEDVKDACIGDMRKEAIEGLLLTEPEQFEEGELEYMYSAEALKKTRRLRILVKEYYNRGFDEPVAYLPNSLLWLEWRNYSSNSFPSNFEPSKLVYLTMKGSSIIELWNGAKRLAFLTTLDLSYCHKLIQTPDFRMITNLERLILSSCDALVEVHPSVGFLKNLILLNMDHCISLERLPAIIQSECLEVLDLNYCFNLKMFPEVERNMTHLKKLDLTSTGIRELPASIEHLSSLENLQMHSCNQLVSLPSSIWRFRNLKISECEKLGSLPEIHGNSNCTRELILKLVSIKELPTSIGNLTSLNFLEICNCKTISSLSSSIWGLTSLTTLKLLDCRKLKNLPGIPNAINHLSGHGLQLLLTLEQPTIYERLDLLRIIDMSWCSCISSLPHNIWMLKFLRILCISYCSRLEYLPENLGHLEHLEELLADGTGILRLPSSVARLNKLEVLSFRKKFAIGPKVQYSSSMLNLPDDVFGSLGSLGSVVKLNLSGNGFCNLPETMNQLFCLEYLDITFCQRLEALPELPPSIKELYVDEHLALRIMEDLVIKCKELNLIAVTKIEYQNFYRWLDSIWSDVSELLENSQKQQLDDMLQLIPFSYLSTAKREEVLKIVIHGTRIPEWFRWQDRSATTMSVNLPEYWYTENFLGFAICCSCCFYHSARSYDVEFEGSMHHYNYDSSYWKEYEEPSYDFYERDSIEITAKLTPRHKGMRTEELKKVCSFSMNVLRRATAVPNMCFAFFPFNSLCHISNLQANNPNDYGIFETCLSPGDIRHRGKQWGFNLVYKDETGGSVTHEMLINR
# B2: Roq1_(A455Q)-Flag (receptor, UniProt A0A290U7C4 1-1306)
# chain: B1 chain with A455Q
# B3: Roq1_(A455N)-Flag (receptor, UniProt A0A290U7C4 1-1306)
# chain: B1 chain with A455N
# B4: NbNRG1 (WT NRG1, C-terminal YFP-HA) (receptor, UniProt Q4TVR0 1-850)
# chain: MAATLLGGAALGPVFDILLKAVLDVGIKIATFRSKFQSLIKTLNDIKPVFDDIERLNKALDGRDYEIEMFKKQLFAGEELVRKCSKTKCYDALKKWNYSRKLTKLENSLVRFCQVHGFIQVCRDSKIILVNVIEHGKKLDQITSMLRGISLRNGSSIGFTNSNGSSGWMNGNSFGSTNGSGFSGWSDVPQFSDSVVGFDLPLQELKVKLLEEKEKVVVLSAPAGCGKTTLAAMLCQEDDIKDKYRDIFFVTVSKKANIKRIVGEIFEMKGYKGPDFASEHAAVCQLNNLLRRSTSQPVLLVLDDVWSESDFVIESFIFQIPGFKILVTSRSVFPKFDTYKLNLLSEKDAKALFYSSAFKDSIPYVQLDLVHKAVRSCCGFPLALKVVGRSLCGQPELIWFNRVMLQSKRQILFPTENDLLRTLRASIDALDEIDLYSSEATTLRDCYLDLGSFPEDHRIHAAAILDMWVERYNLDEDGMKAMAIFFQLSSQNLVNLALARKDAPAVLGLHNLHYIQQHDLLRELVIHQCDEKTVEERKRLYINIKGNDFPKWWSQQRLQPLQAEVLSIFTDEHFESVWYDVRFPKVEVLVLNFETKTYNFPPFVEQMSQLKTLIVANNYFFPTKLNNFQLCSLLNLKRISLERISVTSIFTANLQLPNLRKISFIMCEIGEAFENYAANMSYMWPKLVEMNIEYCSDLVEVPAETCDLVGLKKLSICYCHELVALPEELGKLSNLEVLRLHSCTNVSKLPESVVKLNRLGFLDVYDCVELDFLPREMDQLCSLRTICMGSRLGFTELPDSVLRLVKLEDVVCDEETASLWEYYKEHLRNLRITVIKEDINLNLLHKSLFI
# B5: N-Flag (receptor, UniProt Q40392 1-1144)
# chain: MASSSSSSRWSYDVFLSFRGEDTRKTFTSHLYEVLNDKGIKTFQDDKRLEYGATIPGELCKAIEESQFAIVVFSENYATSRWCLNELVKIMECKTRFKQTVIPIFYDVDPSHVRNQKESFAKAFEEHETKYKDDVEGIQRWRIALNEAANLKGSCDNRDKTDADCIRQIVDQISSKLCKISLSYLQNIVGIDTHLEKIESLLEIGINGVRIMGIWGMGGVGKTTIARAIFDTLLGRMDSSYQFDGACFLKDIKENKRGMHSLQNALLSELLREKANYNNEEDGKHQMASRLRSKKVLIVLDDIDNKDHYLEYLAGDLDWFGNGSRIIITTRDKHLIEKNDIIYEVTALPDHESIQLFKQHAFGKEVPNENFEKLSLEVVNYAKGLPLALKVWGSLLHNLRLTEWKSAIEHMKNNSYSGIIDKLKISYDGLEPKQQEMFLDIACFLRGEEKDYILQILESCHIGAEYGLRILIDKSLVFISEYNQVQMHDLIQDMGKYIVNFQKDPGERSRLWLAKEVEEVMSNNTGTMAMEAIWVSSYSSTLRFSNQAVKNMKRLRVFNMGRSSTHYAIDYLPNNLRCFVCTNYPWESFPSTFELKMLVHLQLRHNSLRHLWTETKHLPSLRRIDLSWSKRLTRTPDFTGMPNLEYVNLYQCSNLEEVHHSLGCCSKVIGLYLNDCKSLKRFPCVNVESLEYLGLRSCDSLEKLPEIYGRMKPEIQIHMQGSGIRELPSSIFQYKTHVTKLLLWNMKNLVALPSSICRLKSLVSLSVSGCSKLESLPEEIGDLDNLRVFDASDTLILRPPSSIIRLNKLIILMFRGFKDGVHFEFPPVAEGLHSLEYLNLSYCNLIDGGLPEEIGSLSSLKKLDLSRNNFEHLPSSIAQLGALQSLDLKDCQRLTQLPELPPELNELHVDCHMALKFIHYLVTKRKKLHRVKLDDAHNDTMYNLFAYTMFQNISSMRHDISASDSLSLTVFTGQPYPEKIPSWFHHQGWDSSVSVNLPENWYIPDKFLGFAVCYSRSLIDTTAHLIPVCDDKMSRMTQKLALSECDTESSNYSEWDIHFFFVPFAGLWDTSKANGKTPNDYGIIRLSFSGEEKMYGLRLLYKEGPEVNALLQMRENSNEPTEHSTGIRRTQYNNRTSFYELING
# Experiments:
# Test in all cases: native gel or EMSA
# WT Roq1-Flag = molecular target: WT Roq1-Flag
# Roq1_(A455Q)-Flag = molecular target: Roq1_(A455Q)-Flag
# Roq1_(A455N)-Flag = molecular target: Roq1_(A455N)-Flag
# [1] = molecular target: NbNRG1 (WT NRG1, C-terminal YFP-HA) (N. benthamiana) (UniProt Q4TVR0)
# N-Flag [2] = molecular target: N-Flag (UniProt Q40392)
# N-Flag [3] = molecular target: N-Flag (UniProt Q40392); remark: listed apart in the source
binder,measurement,setting,value
B1,binding,WT Roq1-Flag,binds
B2,binding,Roq1_(A455Q)-Flag,binds
B3,binding,Roq1_(A455N)-Flag,binds
B4,binding,[1],binds
B5,binding,N-Flag [2],binds weakly
same,binding,N-Flag [3],binds
